{"sequences": {"note": "Chains of the proteins cited; added tags and fusions are not shown. Lines headed by an entry give the natural chain unless they say otherwise; changes in a name come on top.", "UniProt Q16602": "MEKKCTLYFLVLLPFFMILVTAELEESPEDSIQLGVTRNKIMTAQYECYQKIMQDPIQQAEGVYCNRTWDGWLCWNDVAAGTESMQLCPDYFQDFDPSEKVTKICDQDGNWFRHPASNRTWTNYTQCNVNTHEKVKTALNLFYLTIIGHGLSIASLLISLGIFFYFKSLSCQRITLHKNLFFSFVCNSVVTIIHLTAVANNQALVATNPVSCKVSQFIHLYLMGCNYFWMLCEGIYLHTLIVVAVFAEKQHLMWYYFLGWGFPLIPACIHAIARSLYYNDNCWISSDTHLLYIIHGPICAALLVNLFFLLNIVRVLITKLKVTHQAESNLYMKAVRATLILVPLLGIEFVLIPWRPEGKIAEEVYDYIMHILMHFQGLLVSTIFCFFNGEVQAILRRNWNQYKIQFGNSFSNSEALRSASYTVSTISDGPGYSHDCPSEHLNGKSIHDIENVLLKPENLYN"}, "source": "patent US20160207975A1", "about": "(published 2016)", "biological_target": "CGRP receptor (CALCRL:RAMP1) on CALCRL:RAMP1-CRE-bla Freestyle 293F cells (UniProt Q16602)", "experiment": "CRE-bla reporter assay on CALCRL:RAMP1 Freestyle 293F cells; binding inferred by the filing from receptor activation", "note": "Results are given in words; binding and its absence hold for the method and conditions named. Some entries that bind do so weakly or less than the wild type.", "data": [{"binder": "ACDTATCVLGRLSQELHRLQTYPRTNVGSKAF (C-terminal amide (-NH2))", "note": "[ACX017 (SEQ ID NO:1)]", "values": [{"measurement": "binding", "result": "binds"}]}]}
